Measured values taken from PubChem BioAssay AID2417 (National Center for Advancing Translational Sciences (NCATS), 2010).
About 4,300 (3.1%) of roughly 140,000 compounds were called active. Inconclusive results, whose numbers are uncertain, are shown with a selection of clear calls.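 Rule for the calls: active = readout at or below -70, meaning at least 70% loss of cells showing the perinucleolar compartment, a nuclear body marking cancer cells; inconclusive = readout between -30 and a set limit; inactive = the rest.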

assay: High Content Assay for Compounds that inhibit the Assembly of the Perinucleolar Compartment; details: PC3M PTB-GFP, PNC prevalence imaging, 16 h; at 10 µM; hits give low values;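 note: plate controls were DMSO wells for no effect and camptothecin positive control wells for full effect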
Summary of the method: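 Read-out is percentage of cells bearing a perinucleolar compartment, from automated 20x imaging of fixed, Hoechst-stained PC3M PTB-GFP cells. Cells were seeded 4 h, then exposed 16 h to compound (23 nl of library stock) in duplicate plates.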

Row | SMILES | activity change (PNC), negative = inhibition
1 | COC(=O)c1ccc(-n2nnnc2SC)cc1 | inactive: 0.755%
2 | CCCCCCCNC(=O)CC(NS(=O)(=O)c1ccc(NC(C)=O)cc1)C(C)C (stereo not drawn) | inconclusive: -37.5%
3 | COCCn1c(SCc2ccc(C(=O)OC)o2)nc2cc(Cl)ccc2c1=O | inactive: -18.6%
4 | Cc1ccccc1-n1c(C)nnc1SCC(=O)N1CCc2ccccc2C1 | active: -107%
5 | Cc1ccc(C2=NN(C(=O)CCl)C(c3cccs3)C2)o1 (stereo not drawn) | inactive: 0.442%
6 | CCN(C(=O)COC(=O)c1c(-c2ccccc2)noc1C)C1CCS(=O)(=O)C1 (stereo not drawn) | inconclusive: -55.3%
7 | CC(C)NC(=O)C(Sc1ccccc1)c1ccccc1 (stereo not drawn) | inconclusive: -33.8%
8 | CC(C)N1C(=O)/C(=C/c2nc3ccccc3c(=O)n2-c2ccccc2)c2ccccc21 | inactive: 50.9%
9 | Cc1ccsc1-c1nc(CSCC(=O)NCCN2CCCC2)c(C)o1 | inconclusive: -39%
10 | O=C1c2ccccc2C(O)N1Cc1ccc2c(c1)OCO2 (stereo not drawn) | inactive: 22.8%
11 | COc1cc(/C=C/C(=O)OCC(=O)N2CCN(S(=O)(=O)c3ccc(C)cc3C)CC2)ccc1O | inactive: 96.2%
12 | CCOC(=O)N1CC=C2C(C#N)=C(N)C(C#N)(C#N)[C@H](c3cccs3)C2C1 (stereo partly drawn) | active: -100%
13 | O=S(=O)(c1cccs1)N1CCN(CC(O)COc2cccc(Br)c2)CC1 (stereo not drawn) | inactive: -15.5%
14 | COc1ccc(C(=O)NC(=S)Nc2ccc(N3CCOCC3)c(Cl)c2)cc1[N+](=O)[O-] | active: -100%
15 | Cc1ccc(N(CCC(=O)Nc2nnc(C3CC3)s2)S(=O)(=O)c2ccccc2)cc1 | inconclusive: -37.3%
16 | COc1ccc(S(=O)(=O)Nc2cc(C)c(O)cc2C(C)C)cc1 | inactive: -20.1%
17 | CCCc1cc(C(=O)NCC(C)C)no1 | inconclusive: -33.4%
18 | O=S(=O)(c1cccs1)N1CCCc2ccccc21 | inconclusive: -50.3%
19 | CC1CCN(CCOc2cc(Cl)ccc2Cl)CC1 | inactive: 83.2%
20 | C=CCO/N=C/C1C(=O)CC(C)(C)CC1=O | inconclusive: -39.1%

Among those listed so far, these have a Cl atom.
Row | SMILES | activity change (PNC), negative = inhibition
3 | COCCn1c(SCc2ccc(C(=O)OC)o2)nc2cc(Cl)ccc2c1=O | inactive: -18.6%
5 | Cc1ccc(C2=NN(C(=O)CCl)C(c3cccs3)C2)o1 (stereo not drawn) | inactive: 0.442%
14 | COc1ccc(C(=O)NC(=S)Nc2ccc(N3CCOCC3)c(Cl)c2)cc1[N+](=O)[O-] | active: -100%
19 | CC1CCN(CCOc2cc(Cl)ccc2Cl)CC1 | inactive: 83.2%

The listing continues:

Row | SMILES | activity change (PNC), negative = inhibition
21 | Cc1cc(C)nc(SCc2nnc(SCC(=O)N3CCOCC3)o2)n1 | inconclusive: -31%
22 | COc1ncnc2c1oc1nc(CC(C)C)c3c(c12)CC(C)(C)OC3 | inactive: -5.34%
23 | Cc1ccc(-c2c(C#N)c(N)nc3c2CCCCCC3)o1 | inactive: 28.6%
24 | Cc1cc(SCC(=O)Nc2ncc(Cl)cc2Cl)nc2ccccc12 | inactive: 2.02%
25 | C/C(=N\N=C1\NC(=O)CC(C(=O)O)S1)c1ccc(F)cc1 (stereo not drawn) | inconclusive: -52.3%
26 | CCN(C(=O)c1ccco1)c1nnc(-c2ccc(OC)cc2)s1 | active: -100%
27 | N#Cc1cc(C(=O)c2cc(Cl)ccc2O)cn(-c2ccccc2)c1=O | inactive: 2.47%
28 | CCn1c(SCC(=O)Nc2ccc(C(C)=O)cc2)nc2ccccc21 | inactive: -29.4%
29 | Cc1nnc(SCC(=O)Nc2ccc3c(c2)COC3=O)n1-c1ccccc1 | inconclusive: -31.5%
30 | CCc1ccc(NC(=O)N(CCOC)C2CCN(C(C)=O)CC2)cc1 | inactive: -25.1%
31 | Cc1nc(SCC(=O)N2c3ccccc3Sc3ccccc32)n[nH]1 | inconclusive: -45.7%
32 | NC(=O)/C=C\c1cn(-c2ccccc2)nc1-c1ccc2c(c1)OCCO2 | inconclusive: -42.8%
33 | COCCOC(=O)C1=C(C)N=c2s/c(=C\c3cccs3)c(=O)n2C1c1cccs1 (stereo not drawn) | active: -82.9%
34 | COc1ccc(OC)c(NC(=O)CC2SC(=Nc3ccccc3)N(CCc3ccccn3)C2=O)c1 (stereo not drawn) | inconclusive: -41.3%
35 | CCOC(=O)c1cc(C#N)c(SCC(=O)c2cc(C#N)c(SC)nc2C)nc1C | inconclusive: -30.9%
36 | O=C(CCC(=O)N(CC(=O)NC1CCCCC1)Cc1ccco1)Nc1nccs1 | inconclusive: -62.9%
37 | Cc1ccc(S(=O)(=O)c2c(N)n(Cc3ccco3)c3nc4ccccc4nc23)cc1C | inactive: -5.38%
38 | O=C(Nc1ccc(Br)cc1)c1ccc(N2C(=O)C3CC=CCC3C2=O)cc1 (stereo not drawn) | inconclusive: -53%
39 | COC(=O)c1cccc(OC(N)=O)c1 | inconclusive: -59.2%
40 | CCN(CC)Cc1c[nH]c2c(C(=O)OC)cccc12 | inconclusive: -31.3%

Row | SMILES | activity change (PNC), negative = inhibition
41 | N#CCCS(=O)(=O)c1nnnn1-c1ccccc1 | inconclusive: -42.4%
42 | COc1ccc(NS(=O)(=O)c2ccc(C)c(NC(=O)NC3CCCCC3)c2)cc1 | inconclusive: -43.9%
43 | O=C(Nc1ccc2c(c1)OCO2)c1cncc(Br)c1 | inconclusive: -61.2%
44 | N#CCN1CCN(CC(=O)Nc2ccc(OCc3ccccc3)cc2)CC1 | inconclusive: -57.1%
45 | Cc1ccc(C2(C)NC(=O)N(CC(=O)Nc3cc(S(=O)(=O)N4CCOCC4)ccc3C)C2=O)cc1 (stereo not drawn) | active: -115%
46 | Cc1ccccc1C1C(C#N)=C2NC(=O)c3c(sc4c3CCCCC4)N2C2=C1C(=O)CC(C)(C)C2 (stereo not drawn) | inactive: 32.1%
47 | COCCn1nnnc1C(c1ccc(OC)c(OC)c1)N1CCN(c2nc3ccccc3s2)CC1 (stereo not drawn) | inconclusive: -38.3%
48 | CCn1c(O)c2ccc(C(=O)N=NC(=O)c3cccnc3)cc2c1O | inconclusive: -35.8%
49 | COC(Cc1nnc(SC)n1-c1ccc(Cl)cc1)OC | inconclusive: -55.8%
50 | CCOC(=O)c1c(C)nc2sc(C(N)=O)c(N)c2c1-c1ccc(OC)cc1 | inactive: 40.9%
51 | Cn1c(=O)[nH]c(=O)c2c1nc(OC(=O)c1ccccc1)n2CC(O)COc1ccccc1 (stereo not drawn) | inconclusive: -61.5%
52 | C/C(=N\S(=O)(=O)c1ccc(C)cc1)Nc1cc(C(C)C)c(O)cc1C | inconclusive: -38.8%
53 | COc1ccc(-n2ncc3c(=O)n(CC(=O)N4c5ccccc5CC4C)cnc32)cc1 (stereo not drawn) | inconclusive: -54.2%
54 | O=C(Nc1nccs1)c1ccc(-c2ccccc2Cl)o1 | inconclusive: -37.4%
55 | COc1cccc(/C=C2\SC(=S)N(CC3CCCO3)C2=O)c1 (stereo not drawn) | inactive: -19.3%
56 | C/C=C(\C)CN1CCN(c2cccc(C)c2C)CC1 | inactive: 30%
57 | COCc1cc(C)nc2sc(C(=O)NC3CCCCC3)c(N)c12 | inconclusive: -58%
58 | Cc1cc(Nc2ccc(Cl)cc2)n(-c2cccc(Cl)c2)n1 | inactive: -3.33%
